Consider 4 molecules from patent US20080038265A1 (published 2008).

The target in assay [1] is T1, soluble EpoR (EposR) (human, UniProt P19235 25-250, limits assumed).
T1 construct: Test antigen in BIAcore and in yeast display assays; also called soluble recombinant human EpoR
T1 sequence (looked up): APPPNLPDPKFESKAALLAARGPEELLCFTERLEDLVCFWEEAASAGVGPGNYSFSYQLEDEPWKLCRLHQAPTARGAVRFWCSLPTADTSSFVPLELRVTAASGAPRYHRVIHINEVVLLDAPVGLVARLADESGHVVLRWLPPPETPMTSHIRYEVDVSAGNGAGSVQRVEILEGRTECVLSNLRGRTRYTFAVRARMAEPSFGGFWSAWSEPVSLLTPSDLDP
The assay can be described thus: yeast surface display, flow cytometry: equilibrium titration of scFv-displaying yeast with soluble EpoR at 37 C, bound EposR detected with MAB307 + anti-mouse RPE.

Assay [2] addresses T1, soluble EpoR (EposR). Kind of assay: yeast surface display off-rate, flow cytometry: yeast loaded with 0.5 uM EposR, then 10,000 fold excess of Ab12 IgG1 at 37 C; remaining EposR detected with MAB307 + anti-mouse PE.

Results are given in words; binding and its absence hold for the method and conditions named. Some entries that bind do so weakly or less than the wild type.

B1: Ab12 41/34 (scFv)
scFv displayed on yeast: GENKVEYAPALMALSQVQLQESGPGLVKPSETLSLTCTVSGASISSYYWSWIRQPPGKGLEWIGYIYYSGSTNYNPSLKSRVTISVDTSKNQFSLKLRSVTAADTAVYYCARERLGIGDYWGQGTLVTVSSGHEAAAVMQVQYPASDIQLTQSPSSLSASVGDRVTITCRASQGIRNDLGWYQQKPGKAPKRLIYAASSLQSGVPSRFSGSGSGTEFTLTISSLQPEDFATYYCLQHNTYPPTFGQGTKVEIK
B1: the binding entry in assay [1] was “binds”.

B2: Ab12 41/WT (scFv)
scFv displayed on yeast: GENKVEYAPALMALSQVQLQESGPGLVKPSETLSLTCTVSGASISSYYWSWIRQPPGKGLEWIGYIYYSGSTNYNPSLKSRVTISVDTSKNQFSLKLRSVTAADTAVYYCARERLGIGDYWGQGTLVTVSSGGGGSGGGGSGGGGSDIQLTQSPSSLSASVGDRVTITCRASQGIRNDLGWYQQKPGKAPKRLIYAASSLQSGVPSRFSGSGSGTEFTLTISSLQPEDFATYYCLQHNTYPPTFGQGTKVEIK
notes: also called Ab12 scFv construct with linker 41 in the tether position and the Gly/Ser linker (WT) in the scFv linker position
Take B2: in assay [1], the binding entry is reported as “binds”.

B3: Ab12 WT/WT (scFv)
scFv displayed on yeast: GGGGSGGGGSGGGGSQVQLQESGPGLVKPSETLSLTCTVSGASISSYYWSWIRQPPGKGLEWIGYIYYSGSTNYNPSLKSRVTISVDTSKNQFSLKLRSVTAADTAVYYCARERLGIGDYWGQGTLVTVSSGGGGSGGGGSGGGGSDIQLTQSPSSLSASVGDRVTITCRASQGIRNDLGWYQQKPGKAPKRLIYAASSLQSGVPSRFSGSGSGTEFTLTISSLQPEDFATYYCLQHNTYPPTFGQGTKVEIK
Take B3: in assay [1], the binding entry is given as “binds”.

B4: Ab12 41/40 scFv (scFv)
scFv: GENKVEYAPALMALSQVQLQESGPGLVKPSETLSLTCTVSGASISSYYWSWIRQPPGKGLEWIGYIYYSGSTNYNPSLKSRVTISVDTSKNQFSLKLRSVTAADTAVYYCARERLGIGDYWGQGTLVTVSSGPAKELTPLKEAKVSDIQLTQSPSSLSASVGDRVTITCRASQGIRNDLGWYQQKPGKAPKRLIYAASSLQSGVPSRFSGSGSGTEFTLTISSLQPEDFATYYCLQHNTYPPTFGQGTKVEIK
With B4, the binding entry in assay [1] and in assay [2] was “binds” in each case.
